Source: the Kinase Knowledgebase extract (Sharma et al. 2016)

Chains of the proteins cited; added tags and fusions are not shown.
UniProt Q16539, whole entry, looked up: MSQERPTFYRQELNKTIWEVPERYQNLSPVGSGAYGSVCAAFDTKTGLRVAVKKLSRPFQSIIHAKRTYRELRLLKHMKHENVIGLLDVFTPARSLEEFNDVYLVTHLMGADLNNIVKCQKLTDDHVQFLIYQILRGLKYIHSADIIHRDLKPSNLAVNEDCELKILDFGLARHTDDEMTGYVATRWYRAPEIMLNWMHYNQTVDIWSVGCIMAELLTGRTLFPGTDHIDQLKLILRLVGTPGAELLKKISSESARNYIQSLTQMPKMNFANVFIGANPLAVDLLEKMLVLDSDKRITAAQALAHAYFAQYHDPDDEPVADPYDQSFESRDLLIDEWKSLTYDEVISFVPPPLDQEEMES

Target: MAPK14 (UniProt Q16539)
Experiment: Inhibition of MAPK14 Kinase Activity

IC50: < 10 µM
Structure (SMILES): COC(=O)Cn1ncc2cc(-c3cc(C(=O)NC4CC4)ccc3C)ccc21
